“Also recorded” adds a separate entry of the source.

For the data set, the system named is db/db mice. As to the kind of experiment: glucose homeostasis in db/db mice. It counts as in vivo, mouse. As to conditions: 100 mg/kg/day in chow, non-fasted and fasted, versus normal chow. An excerpt: We therefore investigated the ability of our small molecule RIPK1 inhibitor to improve glucose homeostasis in a diabetic animal model. Mice genetically deficient for the leptin receptor (db/db mice; Jackson Labs, BKS.Cg-Dock7m+/+Leprdb/J) are a widely used animal model of insulin resistance and diabetes. In our study, 4-week old male db/db mice were acclimated for a period of one week. At this point, when the mice were 5 weeks of age, the study was started. Mice were then divided into two group (n=10/group) and baseline measurements of non-fasted blood glucoses (using a glucometer) and body weight were taken. After baseline measurements, one group of mice was fed chow containing RIPK1 inhibitor (100 mg/kg/day, n=10) and the other remained on normal chow (n=10). Animals remained on these diets for 6 weeks. Additional measurements of non-fasted blood glucose and body weight were taken 2 and 4 weeks after study start. At week 8, mice were fasted overnight (16 hours) and fasted blood glucose and body weight were measured on the following day.

Take `N#Cc1cc(N2CCC(C(=O)N3N=CC[C@H]3c3cc(F)cc(F)c3)CC2)ncn1` [Example 78, (S)-6-(4-(5-(3,5-difluorophenyl)-4,5-dihydro-1H-pyrazole-1-carbonyl)piperidin-1-yl)pyrimidine-4-carbonitrile]: the body weight result is listed as “without altering body weight; also recorded: no difference between groups”.
